Data from PubChem BioAssay AID1508600 (Functional Genomics Laboratory (NCATS/FGL), 2020).
Among all 53,000 sequences or so, about 3,700 (7%) were called active.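 The calls were made as follows: active = gene knockdowns whose robust z-score for IL-1 alpha signal is at least 2 or at most -2, so actives lie on both sides; inactive = the rest.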 The list shows a part of the results.

Experiment: Components of the Cytosolic LPS Sensing Pathway: Gene Identification via Genome-wide siRNA Screen;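 also: robust z of the log signal after scaling to non-targeting control siRNA wells of the plate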
Conditions: RAW264.7 macrophages, IL-1a HTRF, actives lie on both sides, screened at 100 nM (by protocol), cells primed 5 h with Pam3CSK4 first
Summary of the method: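 RAW264.7; siRNA 100 nM final, RNAiMAX, 48h 37 degrees C; Pam3CSK4 5 h; LipidA + TransIT-TKO 24 h; IL-1a HTRF; CellTiter-Glo viability; robust z vs negative-control median.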

Row | Sequence | z-score
1 | GCAGGCCAGAGUAGUCAUGTT against Them6 | inactive: 0.579
2 | GGCCACCAUUUCUGAAAUCTT against Tecr | inactive: 0.714
3 | GGUCACUAGUUUAUUUUGATT against Aida | inactive: -0.205
4 | CGGGCCAUUAACAACCUCUTT against 4930433I11Rik | inactive: -0.318
5 | GGGAGCUAGAUAUCCGGAATT against Ndufv3 | inactive: 0.113
6 | GGUCUGUGUCAAAAACCACTT against Klk1b11 | inactive: -1.11
7 | CCUUGUUCAAAAAGAUGGCTT against Serpina1f | active: -2.08
8 | CCCUACCCAGUUUCAGUUGTT against Phf12 | inactive: 0.206
9 | GCCCUAUCUACCAUAACACTT against Dok3 | active: -2.11
10 | GGUGCUGACUGCUUUUGGATT against Hbb-y | inactive: 1.32
11 | GGCAUUCGAAGGGUCUACATT against Kcna7 | inactive: -1.22
12 | GGAAAAAUGACUGAUCUCUTT against Unc5c | inactive: -0.0354
13 | GCCAAAUCAUGGGUCUGGUTT against Npas3 | inactive: 0.969
14 | GGUUAUCCCAACUACCAGCTT against Timm17b | inactive: 0.734
15 | GGAAGAAAAGGCUUCUCUUTT against Ube3c | inactive: -0.00788
16 | GGGCUGUGAUAUGCAACUCTT against Teddm2 | inactive: -0.988
17 | GCGAUUAACGGAUCGUACCTT against Letmd1 | inactive: 0.192
18 | GGACAAGCUCCAAAACAACTT against Srsf4 | inactive: -0.292
19 | GGACCUGCGUUUUGGCACATT against Aadacl4fm1 | inactive: 0.46
20 | GGAGUUUCUCAGUGAAGGATT against Traf4 | inactive: 0.285
21 | GGACAUUUCCUCGCUUGACTT against L3mbtl2 | inactive: 0.0388
22 | CCUCCUCAGUAUCCGUAUATT against Nudt21 | inactive: -0.632
23 | GGACAUCAUCCAGGAAAACTT against Bcar3 | inactive: -0.347
24 | GCUACAAACAACAAGUGACTT against 2210408I21Rik | inactive: 0.166
25 | GCUUCUGAUUGAGAGUUCATT against D830044D21Rik | inactive: 0.00762
26 | GGCUUUACUUCUUGCUGUGTT against Olfr1412 | inactive: -0.918
27 | GGUGUAUUAAAAUGUCAGUTT against Marveld2 | inactive: 1.92
28 | CGUGAAGAUUCUUAAGGCGTT against Ppil1 | inactive: 0.716
29 | GCGGAAGAAGGCUUGUUACTT against Wdr95 | inactive: 0.499

Random excerpt: two records from the list
Row | Sequence | z-score
8 | CCCUACCCAGUUUCAGUUGTT against Phf12 | inactive: 0.206
26 | GGCUUUACUUCUUGCUGUGTT against Olfr1412 | inactive: -0.918
